In publication doi:10.1101/2020.02.25.964072:
These are yes or no findings as the source states them, for the method shown. In cells and extracts the contact can be indirect. A yes stands for co-enrichment or nearness to the bait. Other partners may have been found.

Protein sequences, listed by entry. Tags and fused reporters are not part of them.
UniProt Q9H4L4: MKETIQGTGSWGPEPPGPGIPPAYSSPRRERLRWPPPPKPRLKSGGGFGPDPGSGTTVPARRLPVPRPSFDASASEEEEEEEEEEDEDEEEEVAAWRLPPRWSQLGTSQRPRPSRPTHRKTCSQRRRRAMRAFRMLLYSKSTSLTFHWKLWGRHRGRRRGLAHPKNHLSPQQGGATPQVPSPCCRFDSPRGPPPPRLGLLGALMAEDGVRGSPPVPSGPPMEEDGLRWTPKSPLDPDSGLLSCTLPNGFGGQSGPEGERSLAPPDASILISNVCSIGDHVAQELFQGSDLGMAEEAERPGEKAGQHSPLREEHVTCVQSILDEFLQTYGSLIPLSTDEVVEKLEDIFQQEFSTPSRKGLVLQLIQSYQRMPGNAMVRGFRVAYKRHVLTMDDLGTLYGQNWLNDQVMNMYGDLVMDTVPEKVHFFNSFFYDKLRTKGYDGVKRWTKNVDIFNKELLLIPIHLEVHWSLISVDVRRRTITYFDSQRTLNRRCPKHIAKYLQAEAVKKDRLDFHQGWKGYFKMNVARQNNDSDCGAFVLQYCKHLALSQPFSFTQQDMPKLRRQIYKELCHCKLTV
UniProt Q8IY21: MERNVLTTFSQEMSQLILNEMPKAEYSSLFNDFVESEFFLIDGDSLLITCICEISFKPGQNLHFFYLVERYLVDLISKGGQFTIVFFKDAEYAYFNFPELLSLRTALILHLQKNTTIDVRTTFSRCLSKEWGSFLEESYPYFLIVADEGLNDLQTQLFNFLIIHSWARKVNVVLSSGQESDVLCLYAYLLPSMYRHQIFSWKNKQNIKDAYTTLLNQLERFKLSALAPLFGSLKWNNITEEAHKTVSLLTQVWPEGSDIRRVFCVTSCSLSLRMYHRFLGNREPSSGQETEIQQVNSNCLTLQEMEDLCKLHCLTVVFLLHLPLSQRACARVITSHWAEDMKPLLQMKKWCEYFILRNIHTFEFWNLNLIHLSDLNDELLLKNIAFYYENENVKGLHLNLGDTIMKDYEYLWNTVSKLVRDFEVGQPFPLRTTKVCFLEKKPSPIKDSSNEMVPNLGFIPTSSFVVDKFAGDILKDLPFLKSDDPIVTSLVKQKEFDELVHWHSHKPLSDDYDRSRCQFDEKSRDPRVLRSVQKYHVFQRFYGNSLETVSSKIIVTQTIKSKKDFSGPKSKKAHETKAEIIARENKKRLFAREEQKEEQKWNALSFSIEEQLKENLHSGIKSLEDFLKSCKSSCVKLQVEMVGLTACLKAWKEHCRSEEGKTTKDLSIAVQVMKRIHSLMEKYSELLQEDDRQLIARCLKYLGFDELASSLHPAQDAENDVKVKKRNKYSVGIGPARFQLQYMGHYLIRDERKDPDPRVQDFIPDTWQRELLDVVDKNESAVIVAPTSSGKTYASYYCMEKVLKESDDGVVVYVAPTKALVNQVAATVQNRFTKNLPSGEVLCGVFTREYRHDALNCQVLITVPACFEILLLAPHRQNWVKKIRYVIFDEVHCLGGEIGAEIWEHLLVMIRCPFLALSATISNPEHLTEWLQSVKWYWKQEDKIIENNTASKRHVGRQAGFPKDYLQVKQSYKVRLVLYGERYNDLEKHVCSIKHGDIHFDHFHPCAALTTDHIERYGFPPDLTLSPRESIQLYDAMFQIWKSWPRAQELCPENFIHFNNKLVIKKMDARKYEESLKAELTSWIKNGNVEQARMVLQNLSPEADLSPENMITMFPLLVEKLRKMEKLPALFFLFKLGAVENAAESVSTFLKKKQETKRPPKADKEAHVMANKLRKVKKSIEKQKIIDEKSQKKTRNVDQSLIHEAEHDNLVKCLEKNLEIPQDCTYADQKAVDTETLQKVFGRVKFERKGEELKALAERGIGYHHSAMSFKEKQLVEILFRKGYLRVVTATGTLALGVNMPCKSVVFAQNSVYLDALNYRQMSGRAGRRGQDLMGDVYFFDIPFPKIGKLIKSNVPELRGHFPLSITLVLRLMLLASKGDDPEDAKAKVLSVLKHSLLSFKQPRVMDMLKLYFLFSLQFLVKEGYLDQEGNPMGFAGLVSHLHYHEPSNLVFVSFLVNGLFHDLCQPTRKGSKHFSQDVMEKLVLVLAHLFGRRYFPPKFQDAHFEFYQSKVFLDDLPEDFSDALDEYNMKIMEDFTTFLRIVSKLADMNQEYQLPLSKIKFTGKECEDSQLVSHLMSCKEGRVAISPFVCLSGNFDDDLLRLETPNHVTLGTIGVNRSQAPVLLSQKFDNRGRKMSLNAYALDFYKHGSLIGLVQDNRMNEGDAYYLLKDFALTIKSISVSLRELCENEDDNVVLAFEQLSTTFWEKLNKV
UniProt P19525: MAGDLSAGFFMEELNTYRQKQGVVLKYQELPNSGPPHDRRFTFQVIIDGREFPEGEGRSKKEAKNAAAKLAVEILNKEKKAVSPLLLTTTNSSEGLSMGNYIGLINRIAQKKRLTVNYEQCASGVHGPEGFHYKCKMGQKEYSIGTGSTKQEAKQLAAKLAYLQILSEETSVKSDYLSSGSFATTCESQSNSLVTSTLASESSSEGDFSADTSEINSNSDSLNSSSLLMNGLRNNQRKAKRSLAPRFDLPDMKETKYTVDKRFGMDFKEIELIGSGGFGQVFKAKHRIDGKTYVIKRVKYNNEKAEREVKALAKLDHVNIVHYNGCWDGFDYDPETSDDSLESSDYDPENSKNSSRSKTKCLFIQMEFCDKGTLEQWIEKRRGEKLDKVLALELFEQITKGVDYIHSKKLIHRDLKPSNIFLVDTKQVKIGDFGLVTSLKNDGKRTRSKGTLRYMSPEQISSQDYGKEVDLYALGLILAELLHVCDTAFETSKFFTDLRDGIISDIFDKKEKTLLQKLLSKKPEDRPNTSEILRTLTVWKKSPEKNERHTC

B1: TAK1 (also known as MAP3K7) (enzyme, UniProt O43318 1-606)
chain: MSTASAASSSSSSSAGEMIEAPSQVLNFEEIDYKEIEVEEVVGRGAFGVVCKAKWRAKDVAIKQIESESERKAFIVELRQLSRVNHPNIVKLYGACLNPVCLVMEYAEGGSLYNVLHGAEPLPYYTAAHAMSWCLQCSQGVAYLHSMQPKALIHRDLKPPNLLLVAGGTVLKICDFGTACDIQTHMTNNKGSAAWMAPEVFEGSNYSEKCDVFSWGIILWEVITRRKPFDEIGGPAFRIMWAVHNGTRPPLIKNLPKPIESLMTRCWSKDPSQRPSMEEIVKIMTHLMRYFPGADEPLQYPCQYSDEGQSNSATSTGSFMDIASTNTSNKSDTNMEQVPATNDTIKRLESKLLKNQAKQQSESGRLSLGASRGSSVESLPPTSEGKRMSADMSEIEARIAATTAYSKPKRGHRKTASFGNILDVPEIVISGNGQPRRRSIQDLTVTGTEPGQVSSRSSSPSVRMITTSGPTSEKPTRSHPWTPDDSTDTNGSDNSIPMAYLTLDHQLQPLAPCPNSKESMAVFEQHCKMAQEYMKVQTEIALLLQRKQELVAELDQDEKDQQNTSRLVQEHKKLLDENKSLSTYYQQCKKQLEVIRSQQQKRQGTS
B2: HERC5 (enzyme, UniProt Q9UII4 1-1024)
chain: MERRSRRKSRRNGRSTAGKAAATQPAKSPGAQLWLFPSAAGLHRALLRRVEVTRQLCCSPGRLAVLERGGAGVQVHQLLAGSGGARTPKCIKLGKNMKIHSVDQGAEHMLILSSDGKPFEYDNYSMKHLRFESILQEKKIIQITCGDYHSLALSKGGELFAWGQNLHGQLGVGRKFPSTTTPQIVEHLAGVPLAQISAGEAHSMALSMSGNIYSWGKNECGQLGLGHTESKDDPSLIEGLDNQKVEFVACGGSHSALLTQDGLLFTFGAGKHGQLGHNSTQNELRPCLVAELVGYRVTQIACGRWHTLAYVSDLGKVFSFGSGKDGQLGNGGTRDQLMPLPVKVSSSEELKLESHTSEKELIMIAGGNQSILLWIKKENSYVNLKRTIPTLNEGTVKRWIADVETKRWQSTKREIQEIFSSPACLTGSFLRKRRTTEMMPVYLDLNKARNIFKELTQKDWITNMITTCLKDNLLKRLPFHSPPQEALEIFFLLPECPMMHISNNWESLVVPFAKVVCKMSDQSSLVLEEYWATLQESTFSKLVQMFKTAVICQLDYWDESAEENGNVQALLEMLKKLHRVNQVKCQLPESIFQVDELLHRLNFFVEVCRRYLWKMTVDASENVQCCVIFSHFPFIFNNLSKIKLLHTDTLLKIESKKHKAYLRSAAIEEERESEFALRPTFDLTVRRNHLIEDVLNQLSQFENEDLRKELWVSFSGEIGYDLGGVKKEFFYCLFAEMIQPEYGMFMYPEGASCMWFPVKPKFEKKRYFFFGVLCGLSLFNCNVANLPFPLALFKKLLDQMPSLEDLKELSPDLGKNLQTLLDDEGDNFEEVFYIHFNVHWDRNDTNLIPNGSSITVNQTNKRDYVSKYINYIFNDSVKAVYEEFRRGFYKMCDEDIIKLFHPEELKDVIVGNTDYDWKTFEKNARYEPGYNSSHPTIVMFWKAFHKLTLEEKKKFLVFLTGTDRLQMKDLNNMKITFCCPESWNERDPIRALTCFSVLFLPKYSTMETVEEALQEAINNNRGFG
B3: IFIT5 (protein, UniProt Q13325 1-482)
chain: MSEIRKDTLKAILLELECHFTWNLLKEDIDLFEVEDTIGQQLEFLTTKSRLALYNLLAYVKHLKGQNKDALECLEQAEEIIQQEHSDKEEVRSLVTWGNYAWVYYHMDQLEEAQKYTGKIGNVCKKLSSPSNYKLECPETDCEKGWALLKFGGKYYQKAKAAFEKALEVEPDNPEFNIGYAITVYRLDDSDREGSVKSFSLGPLRKAVTLNPDNSYIKVFLALKLQDVHAEAEGEKYIEEILDQISSQPYVLRYAAKFYRRKNSWNKALELLKKALEVTPTSSFLHHQMGLCYRAQMIQIKKATHNRPKGKDKLKVDELISSAIFHFKAAMERDSMFAFAYTDLANMYAEGGQYSNAEDIFRKALRLENITDDHKHQIHYHYGRFQEFHRKSENTAIHHYLEALKVKDRSPLRTKLTSALKKLSTKRLCHNALDVQSLSALGFVYKLEGEKRQAAEYYEKAQKIDPENAEFLTALCELRLSI

Biological target: Flag-tagged SENP3 (human) (UniProt Q9H4L4)
Assay: affinity purification with mass spectrometry

binding, binds:
DDX60 (from UniProt Q8IY21 1-1712)
EIF2AK2/PKR (from UniProt P19525 1-551) (enzyme)
B1
B2
B3
